For this test, the target named is Ank3 (mouse (endogenous in cultured hippocampal neurons)) (UniProt G5E8K5). The experiment in a line: co-IP; lysate of WT mouse cultured hippocampal neurons (DIV 17-18); lysis buffer 150 mM NaCl, 50 mM Tris pH 7.4, 1 mM EDTA, 1% TX-100; 1 ug mouse IgG, anti-Ank2 or anti-Ank3 antibody, 4 °C 2 h; protein A/G agarose beads; immunoblot. Background: In western blotting, separated proteins are transferred to a membrane and probed.

By UniProt entry, the sequences of proteins in these tests, tags left out.
UniProt G5E8K5: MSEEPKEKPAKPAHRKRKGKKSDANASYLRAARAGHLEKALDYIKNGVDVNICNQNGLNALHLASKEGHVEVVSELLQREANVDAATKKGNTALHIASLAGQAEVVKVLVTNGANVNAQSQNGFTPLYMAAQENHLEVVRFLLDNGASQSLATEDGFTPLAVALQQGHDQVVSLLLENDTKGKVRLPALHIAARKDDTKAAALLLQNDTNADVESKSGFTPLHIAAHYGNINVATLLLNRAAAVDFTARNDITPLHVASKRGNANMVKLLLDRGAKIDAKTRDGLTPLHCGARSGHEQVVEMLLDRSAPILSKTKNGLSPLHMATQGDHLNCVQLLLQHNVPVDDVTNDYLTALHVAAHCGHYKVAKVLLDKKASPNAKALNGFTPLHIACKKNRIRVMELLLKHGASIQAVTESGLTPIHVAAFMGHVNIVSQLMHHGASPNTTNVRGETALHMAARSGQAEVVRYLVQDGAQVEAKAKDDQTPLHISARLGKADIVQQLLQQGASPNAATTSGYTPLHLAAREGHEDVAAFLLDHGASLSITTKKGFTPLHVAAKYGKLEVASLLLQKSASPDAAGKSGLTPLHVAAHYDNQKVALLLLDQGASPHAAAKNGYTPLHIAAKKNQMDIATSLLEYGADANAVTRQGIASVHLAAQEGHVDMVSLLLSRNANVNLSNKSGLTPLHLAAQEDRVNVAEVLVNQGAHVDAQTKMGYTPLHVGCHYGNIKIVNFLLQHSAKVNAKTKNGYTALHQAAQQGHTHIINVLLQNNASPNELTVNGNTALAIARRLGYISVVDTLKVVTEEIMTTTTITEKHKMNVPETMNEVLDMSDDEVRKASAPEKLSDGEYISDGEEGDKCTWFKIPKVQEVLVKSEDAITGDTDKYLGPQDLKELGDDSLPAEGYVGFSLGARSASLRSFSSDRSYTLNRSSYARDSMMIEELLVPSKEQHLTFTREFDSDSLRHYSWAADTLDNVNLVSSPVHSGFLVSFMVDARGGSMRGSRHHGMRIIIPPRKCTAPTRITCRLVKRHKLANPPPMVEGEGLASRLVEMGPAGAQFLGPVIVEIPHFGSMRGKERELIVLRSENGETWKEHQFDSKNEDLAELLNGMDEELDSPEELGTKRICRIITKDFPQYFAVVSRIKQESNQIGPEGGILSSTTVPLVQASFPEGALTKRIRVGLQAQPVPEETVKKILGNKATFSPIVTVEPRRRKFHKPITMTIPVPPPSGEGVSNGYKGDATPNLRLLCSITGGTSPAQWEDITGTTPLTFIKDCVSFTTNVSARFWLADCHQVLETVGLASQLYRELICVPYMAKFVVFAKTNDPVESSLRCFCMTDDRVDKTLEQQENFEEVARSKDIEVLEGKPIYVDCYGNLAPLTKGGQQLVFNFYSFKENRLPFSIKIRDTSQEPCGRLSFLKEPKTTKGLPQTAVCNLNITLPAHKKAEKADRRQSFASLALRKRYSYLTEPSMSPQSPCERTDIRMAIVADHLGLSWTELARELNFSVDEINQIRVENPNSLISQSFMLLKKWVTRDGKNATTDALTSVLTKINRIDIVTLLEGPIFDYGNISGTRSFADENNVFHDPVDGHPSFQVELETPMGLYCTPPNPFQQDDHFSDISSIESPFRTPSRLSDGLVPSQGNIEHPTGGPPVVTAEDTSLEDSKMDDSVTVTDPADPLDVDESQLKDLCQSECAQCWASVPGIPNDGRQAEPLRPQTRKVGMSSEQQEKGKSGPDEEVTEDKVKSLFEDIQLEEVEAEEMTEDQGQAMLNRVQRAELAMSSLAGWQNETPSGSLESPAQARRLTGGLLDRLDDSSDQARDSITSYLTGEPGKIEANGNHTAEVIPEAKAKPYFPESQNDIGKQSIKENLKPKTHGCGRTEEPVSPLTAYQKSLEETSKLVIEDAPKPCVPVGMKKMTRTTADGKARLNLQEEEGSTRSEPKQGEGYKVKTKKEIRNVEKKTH
UniProt Q9Z351: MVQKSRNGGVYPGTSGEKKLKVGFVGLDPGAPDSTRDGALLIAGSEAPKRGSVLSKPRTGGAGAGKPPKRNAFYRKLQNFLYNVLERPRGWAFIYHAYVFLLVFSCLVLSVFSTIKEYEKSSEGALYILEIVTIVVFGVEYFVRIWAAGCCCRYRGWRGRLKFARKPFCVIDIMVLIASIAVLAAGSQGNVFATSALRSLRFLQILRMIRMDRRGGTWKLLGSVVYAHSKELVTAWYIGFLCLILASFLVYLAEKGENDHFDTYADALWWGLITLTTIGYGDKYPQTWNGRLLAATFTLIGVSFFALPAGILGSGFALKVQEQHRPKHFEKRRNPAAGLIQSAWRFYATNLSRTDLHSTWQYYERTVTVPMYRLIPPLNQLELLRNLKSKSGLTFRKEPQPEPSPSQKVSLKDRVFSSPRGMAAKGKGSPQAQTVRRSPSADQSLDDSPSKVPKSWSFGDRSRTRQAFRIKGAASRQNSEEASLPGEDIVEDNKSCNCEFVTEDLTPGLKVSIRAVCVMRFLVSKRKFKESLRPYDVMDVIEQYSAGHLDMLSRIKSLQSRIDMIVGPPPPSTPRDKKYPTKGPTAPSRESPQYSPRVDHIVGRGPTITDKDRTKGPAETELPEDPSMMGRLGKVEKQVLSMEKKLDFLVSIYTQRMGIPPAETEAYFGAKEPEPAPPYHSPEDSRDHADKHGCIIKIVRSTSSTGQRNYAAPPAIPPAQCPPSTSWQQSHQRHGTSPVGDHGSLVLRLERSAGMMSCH
UniProt Q8K3F6: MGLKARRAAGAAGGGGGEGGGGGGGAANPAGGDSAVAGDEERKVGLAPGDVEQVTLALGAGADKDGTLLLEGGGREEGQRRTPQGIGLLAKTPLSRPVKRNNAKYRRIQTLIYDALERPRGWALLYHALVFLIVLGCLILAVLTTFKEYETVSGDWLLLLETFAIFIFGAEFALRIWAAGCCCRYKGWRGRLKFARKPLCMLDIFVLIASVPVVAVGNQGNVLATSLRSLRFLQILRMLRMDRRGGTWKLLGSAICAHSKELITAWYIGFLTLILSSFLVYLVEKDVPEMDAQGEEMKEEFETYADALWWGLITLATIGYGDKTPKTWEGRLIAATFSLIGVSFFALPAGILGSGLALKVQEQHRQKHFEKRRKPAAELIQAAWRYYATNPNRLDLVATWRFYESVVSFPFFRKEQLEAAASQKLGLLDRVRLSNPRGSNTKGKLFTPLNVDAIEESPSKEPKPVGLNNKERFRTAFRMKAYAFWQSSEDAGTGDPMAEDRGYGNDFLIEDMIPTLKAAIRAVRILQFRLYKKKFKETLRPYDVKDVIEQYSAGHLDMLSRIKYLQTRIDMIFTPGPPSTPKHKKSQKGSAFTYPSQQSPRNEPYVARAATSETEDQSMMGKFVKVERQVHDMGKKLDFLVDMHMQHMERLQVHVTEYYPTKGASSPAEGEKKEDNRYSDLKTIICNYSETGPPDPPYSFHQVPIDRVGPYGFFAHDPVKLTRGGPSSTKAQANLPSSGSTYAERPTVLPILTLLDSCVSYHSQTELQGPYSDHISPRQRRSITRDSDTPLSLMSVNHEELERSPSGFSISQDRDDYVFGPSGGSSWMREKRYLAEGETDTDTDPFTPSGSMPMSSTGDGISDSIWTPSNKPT

Results are given in words; binding and its absence hold for the method and conditions named. In cells and extracts the contact can be indirect. Some binding calls cover weakened binding; strength is not graded here.

In the case of “Kv7.2/KCNQ2 potassium channel subunit (from UniProt Q9Z351 1-759)”, the binding result is “binds”.
As to “Kv7.3/KCNQ3 potassium channel subunit (from UniProt Q8K3F6 1-873)”, the binding result is “binds”.
